Measurements as given in PMC7819943, “Rice protein-binding microarrays: a tool to detect cis-acting elements near promoter regions in rice”.
The list shows a part of the results.

Biological target: T1, OsSMF1 (Oryza sativa, UniProt Q6ZLB0 1-436)
T1 sequence: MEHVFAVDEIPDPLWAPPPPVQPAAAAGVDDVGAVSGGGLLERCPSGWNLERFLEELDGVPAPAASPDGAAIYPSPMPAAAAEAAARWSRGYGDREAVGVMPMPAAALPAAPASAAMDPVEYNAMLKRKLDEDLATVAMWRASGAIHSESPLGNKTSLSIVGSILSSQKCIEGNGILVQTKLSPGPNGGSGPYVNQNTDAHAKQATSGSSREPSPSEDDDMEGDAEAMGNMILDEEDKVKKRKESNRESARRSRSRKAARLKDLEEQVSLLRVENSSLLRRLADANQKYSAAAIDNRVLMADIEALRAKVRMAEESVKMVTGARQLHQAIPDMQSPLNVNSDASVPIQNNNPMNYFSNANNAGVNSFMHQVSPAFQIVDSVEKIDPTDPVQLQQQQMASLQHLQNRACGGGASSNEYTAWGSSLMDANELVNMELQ
Assay: protein-binding microarray (RPBM); PBS, 2% BSA, 51.3 ng/ul salmon testes DNA, 50 uM zinc acetate, 200 nM TF, 25 C, 1 h; high values mean tight binding
Settings: protein: recombinant; tags: N-terminal polyhistidine and DsRed monomer fusion (pET32a); chain copies: 2; label: CyDye5-dUTP incorporated in the synthesized complementary strand; 3' TTTTT single-stranded linker to array surface; dsDNA, one strand shown
How it was run: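 In PBS with 2% BSA, salmon testes DNA and 50 µM zinc acetate, 200 nM protein was incubated on a custom Agilent array at 25 °C for 1 h and then washed off. The array had been made double-stranded by primer extension with Cy5-dUTP and blocked with 2% BSA. The proteins were transcription factors fused N-terminally to polyhistidine and DsRed, expressed in E. coli BL21-CodonPlus and purified on Ni–NTA. The binding signal is per-feature fluorescence intensity (arbitrary units) from an Axon 4000B scanner.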

| Sequence | binding signal |
| --- | --- |
| TGGACCCAGACCGTCCGATCAGTAACGTGCGCACCAGATTCGGAGTCACCTAGTGCAG | 3270 fluorescence intensity (a.u.) |
| GGGAGGCGCCGCGTGGCGGAGACCGCGTCCGCCTTCGTGACGGAGTCACCTAGTGCAG | 3540 fluorescence intensity (a.u.) |
| CAGATGGGTCGGGCCAAAATGTGCTGCGTGGGACACGTGACGGAGTCACCTAGTGCAG | 3400 fluorescence intensity (a.u.) |
| TATAACTACTGCACGAGAATGACGTAGGGTGATGACACGACGGAGTCACCTAGTGCAG | 8520 fluorescence intensity (a.u.) |
| TAGTCCATCACCCTCGCTCAGTGACTCATATCACCCCACACGGAGTCACCTAGTGCAG | 11200 fluorescence intensity (a.u.) |
| AAGAGCTTCATGCGCGTAAGAATGTCAGAATTGCACTCTGCGGAGTCACCTAGTGCAG | 3140 fluorescence intensity (a.u.) |
| GAAACGCTGCTTCTCATGACCCAACCCTGGAATCCTTGACCGGAGTCACCTAGTGCAG | 4090 fluorescence intensity (a.u.) |
| TCATGCGTATGTTAATTATATATGATTATTAGAAATTTTACGGAGTCACCTAGTGCAG | 30200 fluorescence intensity (a.u.) |
| TTAAATAGAATGCTGACTGAACTGTCACGTGTAGACCAAACGGAGTCACCTAGTGCAG | 3480 fluorescence intensity (a.u.) |
| CAGGCTAGGCTGGATAGGAAAGAGATGGGAATCCTAGTCACGGAGTCACCTAGTGCAG | 3540 fluorescence intensity (a.u.) |
| TCGGCGGCGCTACCGCGGATGACGACGCACCCGACGACGACGGAGTCACCTAGTGCAG | 3760 fluorescence intensity (a.u.) |
| CCTTATGTCTTCAGCGTCCTACGTGTAAGCTAGGGAAACCCGGAGTCACCTAGTGCAG | 6260 fluorescence intensity (a.u.) |
| AGGCTGTGTTTAGTTCCACGTCAAAATTAGAAGTTTGAAGCGGAGTCACCTAGTGCAG | 4270 fluorescence intensity (a.u.) |
| GAGCGAGGGGCCTGGTCGGCGAGGGTGAGCAGCCCAGTGTCGGAGTCACCTAGTGCAG | 25200 fluorescence intensity (a.u.) |
| GCTTCCGACGTGCTTCTGCCATTCATTACACCATGTTTCTCGGAGTCACCTAGTGCAG | 3980 fluorescence intensity (a.u.) |
| AATCAGCCGGACATGTTTGGCTGGGTAAAACAATACTTGTCGGAGTCACCTAGTGCAG | 3230 fluorescence intensity (a.u.) |
| AGCAGCCAGAACTTACTTATGCAGAAGCTAGTCATCCATGCGGAGTCACCTAGTGCAG | 4670 fluorescence intensity (a.u.) |
| CGAGATCTGCCACCGCCGTTCTTGTGCTCTTCTTGGTCTTCGGAGTCACCTAGTGCAG | 3300 fluorescence intensity (a.u.) |
| GTGGTGCTACAGTAAATATTTGCTAATGATAGATTAATTACGGAGTCACCTAGTGCAG | 7300 fluorescence intensity (a.u.) |
| CCATCTCTATTATGGTCATCCGGAATAAGGTTTTCATCTGCGGAGTCACCTAGTGCAG | 22100 fluorescence intensity (a.u.) |
| GCTTCGGAGGAGCCAGAATACAAAAGTTTTATCACCACCACGGAGTCACCTAGTGCAG | 3480 fluorescence intensity (a.u.) |

No new results follow: entries from further up.

| Sequence | binding signal |
| --- | --- |
| TGGACCCAGACCGTCCGATCAGTAACGTGCGCACCAGATTCGGAGTCACCTAGTGCAG | 3270 fluorescence intensity (a.u.) |
| GGGAGGCGCCGCGTGGCGGAGACCGCGTCCGCCTTCGTGACGGAGTCACCTAGTGCAG | 3540 fluorescence intensity (a.u.) |
| CAGATGGGTCGGGCCAAAATGTGCTGCGTGGGACACGTGACGGAGTCACCTAGTGCAG | 3400 fluorescence intensity (a.u.) |

(continued)

| Sequence | binding signal |
| --- | --- |
| AAGTCTATTTTGCTTTCTCAACTCTTGCTCTTGAGTGAATCGGAGTCACCTAGTGCAG | 3860 fluorescence intensity (a.u.) |
| CCGGCCTCACCCACCTCGCCGTCACTCCCCTCGACCTCGTCGGAGTCACCTAGTGCAG | 3470 fluorescence intensity (a.u.) |
| TCTTGCTACCAGTCACACCTCACTTACTGACGTAAACAGCCGGAGTCACCTAGTGCAG | 3280 fluorescence intensity (a.u.) |
| GAGGAATCGAAGTTGGGCATGCGTGCGTGGAGATCCATGACGGAGTCACCTAGTGCAG | 4140 fluorescence intensity (a.u.) |
| GGATCTTGAAGATGATGACAGACCCCGTGGACTGTTGCAGCGGAGTCACCTAGTGCAG | 3920 fluorescence intensity (a.u.) |
| GAATTTGCTATAGTTAGGCAGCAACAGCAACGGCCACAGCCGGAGTCACCTAGTGCAG | 19700 fluorescence intensity (a.u.) |
| TTATCTACTCAAGTGACTTGTACTTATCCTCGACTCTCTCCGGAGTCACCTAGTGCAG | 3140 fluorescence intensity (a.u.) |
| CCGTGCGCATGAAGAGGACATTGGATGTTGAGTCACGGAACGGAGTCACCTAGTGCAG | 5760 fluorescence intensity (a.u.) |
| GCTCGTGAGCAGCTCACGAGCCAGCTCGAGCTGACTCGTTCGGAGTCACCTAGTGCAG | 3160 fluorescence intensity (a.u.) |
| GAGAAAAGATAAACTTATTTGTATCGCGTTGACACGGACGCGGAGTCACCTAGTGCAG | 3450 fluorescence intensity (a.u.) |
| CGCTCCGCATTCGAGGACGTGTGGCGTGGCATTTGTGCGTCGGAGTCACCTAGTGCAG | 8440 fluorescence intensity (a.u.) |
| GCTAAGCTCCATCCACGTCCACATTAATGTCAATTATACACGGAGTCACCTAGTGCAG | 3710 fluorescence intensity (a.u.) |
| TCTATATGTGTACAAAATACTTCTTCCATTATATATATTGCGGAGTCACCTAGTGCAG | 3210 fluorescence intensity (a.u.) |
| TTGTGCTATATCCCTAGCTCGAGTTGGCGTGTTAAACCACCGGAGTCACCTAGTGCAG | 3820 fluorescence intensity (a.u.) |
| CGAATCAGTTTCGCCCACGTGGAATGGCCAGAGACGCCCGCGGAGTCACCTAGTGCAG | 5290 fluorescence intensity (a.u.) |
| GCAGCCGGCCATCGTCGTTGTCGTCGCGGGCTTGACGTGGCGGAGTCACCTAGTGCAG | 10700 fluorescence intensity (a.u.) |
| AACCACACACACAAATCCAGCGCAGCAACAGATCTATTGACGGAGTCACCTAGTGCAG | 3900 fluorescence intensity (a.u.) |
| TGATATGATGGAGCTGACGCATCAGTTTCAGAAACTGTTGCGGAGTCACCTAGTGCAG | 10600 fluorescence intensity (a.u.) |
| TTGTCCGACTAGAACTCTACCGATTCTAGTTGCAGCCGATCGGAGTCACCTAGTGCAG | 4090 fluorescence intensity (a.u.) |
| ATCATCTATGCACCCAAATTCAATATTTAAATGTCCATTCCGGAGTCACCTAGTGCAG | 20800 fluorescence intensity (a.u.) |
| AAACGCCAACGCCATACTCCACCTGACCTCACACTCGCACCGGAGTCACCTAGTGCAG | 3290 fluorescence intensity (a.u.) |
